Test results from the supplement of paper PMC6078165.
± gives the standard deviation of the averaged measurements. The reference is the same well before dosing, and untreated signal decays as well.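 Fibroblast labels name human fibroblasts: mostly primary ones from tissues such as uterus (C12385, HUF), lung (H6013), bone (Hs27A), adrenal (HADF) and skin (WS1), plus mammary HMF and breast cancer-associated Hs343T. The cancer cells are basal-like or mesenchymal-like triple-negative breast cancer lines. The paper calls a changed response a hit when it shifts by more than 3x the replicate standard deviation. The tissue of the other fibroblasts is not given here.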 Numbered stars: 1 amine (or outer) side, 2 acyl side, 3 side chain; on linkers, the order of the positions; unused ones are H or OH. Bridge positions count the residues as written; N and C are the ends. Square brackets hold non-standard residues; d marks the D form. Peptide text beside a SMILES is read from it. I, II: the chains in the order shown. Actinocin(9to1) = Cc1c2oc3c(C)ccc(C(=O)[*:1])c3nc-2c(C(=O)[*:2])c(N)c1=O; NMeV = CN[C@H](C(=O)O)C(C)C; Sar = CNCC(=O)O

Test system: BT20
Experiment: relative JC-1 red fluorescence (viability) vs pre-drug, coculture with fibroblast (fraction); higher = more viable cancer cells
Details: 0.1 µM
Method: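 JC-1 labelled TNBC cells cocultured 1:1 (1,500 cells each) with CellTrace Violet stained primary or stromal fibroblasts in 384-well plates in FluoroBrite medium, treated with one of 42 anticancer drugs at 0.1, 1, 10 or 100 uM. JC-1 red fluorescence (mitochondrial integrity in cancer cells only) was read by plate reader every 8 h for 72 h. Values are normalised to each well's pre-drug value. The stock of one drug was tenfold lower, so its dose labels may be too high.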

Cc1c2oc3c(C)ccc(C(=O)N[C@@H]4C(=O)N[C@H](C(C)C)C(=O)N5CCC[C@H]5C(=O)N(C)CC(=O)N(C)[C@@H](C(C)C)C(=O)O[C@@H]4C)c3nc-2c(C(=O)N[C@@H]2C(=O)N[C@H](C(C)C)C(=O)N3CCC[C@H]3C(=O)N(C)CC(=O)N(C)[C@@H](C(C)C)C(=O)O[C@@H]2C)c(N)c1=O [Dactinomycin] (I: T[dV]P[Sar][NMeV] / II: T[dV]P[Sar][NMeV]; ester I:1-I:C, II:1-II:C; linker I:N-II:N via Actinocin(9to1))
relative JC-1 red fluorescence
Details | 8 h | 16 h | 24 h | 32 h | 40 h
coculture fibroblast: C12385 | 0.884 ± 0.013 | 0.855 ± 0.027 | 0.85 ± 0.049 | 0.797 ± 0.044 | 0.741 ± 0.063
coculture fibroblast: H6013 | 0.922 ± 0.017 | 0.907 ± 0.043 | 0.924 ± 0.09 | 0.882 ± 0.093 | 0.868 ± 0.11
coculture fibroblast: H6019 | 0.8748 ± 0.0056 | 0.814 ± 0.029 | 0.814 ± 0.058 | 0.775 ± 0.051 | 0.746 ± 0.077
coculture fibroblast: H6076 | 0.847 ± 0.055 | 0.9335 ± 0.0051 | 0.8283 ± 0.0066 | 0.77681 ± 0.00064 | 0.7392 ± 0.0039
coculture fibroblast: H6231 | 0.83 ± 0.078 | 0.9265 ± 0.002 | 0.855 ± 0.024 | 0.807 ± 0.017 | 0.771 ± 0.016
coculture fibroblast: HADF | 0.9684 ± 0.0053 | 0.932 ± 0.016 | 0.911 ± 0.02 | 0.85 ± 0.015 | 0.836 ± 0.01
coculture fibroblast: HCFa | 0.906 ± 0.026 | 0.87 ± 0.01 | 0.862 ± 0.03 | 0.82 ± 0.032 | 0.804 ± 0.044
coculture fibroblast: HCPF | 0.841 ± 0.092 | 0.951 ± 0.03 | 0.875 ± 0.028 | 0.823 ± 0.015 | 0.7868 ± 0.0041
coculture fibroblast: HHSteC | 0.9047 ± 0.0024 | 0.886 ± 0.012 | 0.886 ± 0.035 | 0.829 ± 0.029 | –
coculture fibroblast: HMF | 0.852 ± 0.17 | 0.887 ± 0.027 | 0.7639 ± 0.0072 | 0.719 ± 0.02 | –
coculture fibroblast: HPFa | 0.917 ± 0.029 | 0.904 ± 0.026 | 0.904 ± 0.024 | 0.824 ± 0.021 | –
coculture fibroblast: HUF | 0.894 ± 0.027 | 0.863 ± 0.07 | 0.859 ± 0.097 | 0.809 ± 0.12 | –
coculture fibroblast: Hs5 | 0.886 ± 0.15 | 0.91827 ± 0.00081 | 0.877 ± 0.015 | 0.846 ± 0.013 | –
coculture fibroblast: Hs27A | 0.913 ± 0.12 | 0.899 ± 0.021 | 0.84 ± 0.12 | 0.853 ± 0.13 | –
coculture fibroblast: Hs343T | 0.738 ± 0.031 | 0.903 ± 0.02 | 0.7737 ± 0.0064 | 0.701 ± 0.0095 | –
coculture fibroblast: WS1 | 0.864 ± 0.013 | 0.82145 ± 0.00017 | 0.803 ± 0.0087 | 0.751 ± 0.014 | –
